This assay has as its target Notch3 (human (endogenous in HCC827 and HCC4006)) (UniProt Q9UM47). Description: co-IP; endogenous proteins; 2 mg lysate of HCC827 or HCC4006 cells in NP40 lysis buffer (10 mM phosphate, 120 mM NaCl, 2.7 mM KCl, 1% Nonidet P40, 10% glycerol); IP with anti-Notch3 (D11B8) or, reciprocally, anti-β-catenin (D10A8), protein G magnetic beads, western blot; cells treated with DMSO or 0.1 μM erlotinib for 1 or 6 days, or erlotinib and gamma secretase inhibitor alone or combined.

Amino acid sequences for entries named in this document (tags omitted). Residues count along the entry.
UniProt Q9UM47, residues 40-2321: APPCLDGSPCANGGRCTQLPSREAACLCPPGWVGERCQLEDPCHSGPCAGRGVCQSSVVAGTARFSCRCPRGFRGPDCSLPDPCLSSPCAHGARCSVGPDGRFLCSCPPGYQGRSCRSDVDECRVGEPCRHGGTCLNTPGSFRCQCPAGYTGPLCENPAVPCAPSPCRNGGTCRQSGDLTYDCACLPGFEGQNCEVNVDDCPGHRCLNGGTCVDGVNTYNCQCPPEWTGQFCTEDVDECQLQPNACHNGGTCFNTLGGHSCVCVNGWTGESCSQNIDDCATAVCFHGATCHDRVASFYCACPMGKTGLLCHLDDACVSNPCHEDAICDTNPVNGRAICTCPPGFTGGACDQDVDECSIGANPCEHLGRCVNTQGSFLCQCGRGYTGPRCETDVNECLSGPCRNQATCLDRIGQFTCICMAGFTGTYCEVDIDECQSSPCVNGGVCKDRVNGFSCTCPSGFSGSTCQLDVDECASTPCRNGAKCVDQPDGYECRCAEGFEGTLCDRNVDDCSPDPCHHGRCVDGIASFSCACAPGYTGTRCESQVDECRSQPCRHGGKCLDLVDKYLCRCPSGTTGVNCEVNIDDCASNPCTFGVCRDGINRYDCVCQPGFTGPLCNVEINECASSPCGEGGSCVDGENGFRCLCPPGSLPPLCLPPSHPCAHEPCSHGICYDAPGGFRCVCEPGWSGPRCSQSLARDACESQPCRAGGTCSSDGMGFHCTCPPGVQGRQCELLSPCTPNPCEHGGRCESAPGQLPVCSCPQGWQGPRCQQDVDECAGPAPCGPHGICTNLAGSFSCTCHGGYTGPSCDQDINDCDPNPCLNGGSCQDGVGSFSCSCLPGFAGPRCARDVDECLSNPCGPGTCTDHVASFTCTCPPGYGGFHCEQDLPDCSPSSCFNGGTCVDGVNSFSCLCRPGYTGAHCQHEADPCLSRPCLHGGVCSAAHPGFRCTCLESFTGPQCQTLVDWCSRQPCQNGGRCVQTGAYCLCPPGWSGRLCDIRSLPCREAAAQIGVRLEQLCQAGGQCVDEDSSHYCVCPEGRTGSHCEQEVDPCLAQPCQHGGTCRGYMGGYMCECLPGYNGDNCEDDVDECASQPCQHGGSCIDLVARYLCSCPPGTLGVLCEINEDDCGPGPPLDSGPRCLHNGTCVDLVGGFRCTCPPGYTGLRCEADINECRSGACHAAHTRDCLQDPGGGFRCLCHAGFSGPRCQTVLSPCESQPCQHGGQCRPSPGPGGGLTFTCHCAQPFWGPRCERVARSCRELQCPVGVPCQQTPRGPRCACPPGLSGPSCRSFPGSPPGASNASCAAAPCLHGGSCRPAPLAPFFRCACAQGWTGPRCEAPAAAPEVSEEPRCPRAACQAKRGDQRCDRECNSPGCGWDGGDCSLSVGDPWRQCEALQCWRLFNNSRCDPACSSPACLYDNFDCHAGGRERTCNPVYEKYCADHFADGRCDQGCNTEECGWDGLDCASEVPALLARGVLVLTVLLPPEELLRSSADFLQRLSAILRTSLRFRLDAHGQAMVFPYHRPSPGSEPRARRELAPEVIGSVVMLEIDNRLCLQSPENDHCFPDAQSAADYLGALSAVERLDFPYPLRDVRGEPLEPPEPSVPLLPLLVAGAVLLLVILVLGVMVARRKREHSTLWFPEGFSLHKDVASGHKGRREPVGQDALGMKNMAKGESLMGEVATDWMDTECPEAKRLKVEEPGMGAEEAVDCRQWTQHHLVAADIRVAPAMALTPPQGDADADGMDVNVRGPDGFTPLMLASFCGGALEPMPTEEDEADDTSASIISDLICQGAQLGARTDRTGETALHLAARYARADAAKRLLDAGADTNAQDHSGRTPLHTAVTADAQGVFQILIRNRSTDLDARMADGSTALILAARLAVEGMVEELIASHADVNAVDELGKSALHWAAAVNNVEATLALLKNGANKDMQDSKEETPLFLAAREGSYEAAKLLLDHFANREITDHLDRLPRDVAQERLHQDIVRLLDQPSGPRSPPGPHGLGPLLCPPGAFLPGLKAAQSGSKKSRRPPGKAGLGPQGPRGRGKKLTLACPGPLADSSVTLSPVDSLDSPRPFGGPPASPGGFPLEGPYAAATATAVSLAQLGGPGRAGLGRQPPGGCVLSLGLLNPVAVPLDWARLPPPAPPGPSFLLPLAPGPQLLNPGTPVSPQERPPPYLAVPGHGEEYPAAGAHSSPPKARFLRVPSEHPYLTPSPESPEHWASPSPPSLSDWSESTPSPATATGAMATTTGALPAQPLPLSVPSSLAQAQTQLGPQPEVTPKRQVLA
UniProt P35222: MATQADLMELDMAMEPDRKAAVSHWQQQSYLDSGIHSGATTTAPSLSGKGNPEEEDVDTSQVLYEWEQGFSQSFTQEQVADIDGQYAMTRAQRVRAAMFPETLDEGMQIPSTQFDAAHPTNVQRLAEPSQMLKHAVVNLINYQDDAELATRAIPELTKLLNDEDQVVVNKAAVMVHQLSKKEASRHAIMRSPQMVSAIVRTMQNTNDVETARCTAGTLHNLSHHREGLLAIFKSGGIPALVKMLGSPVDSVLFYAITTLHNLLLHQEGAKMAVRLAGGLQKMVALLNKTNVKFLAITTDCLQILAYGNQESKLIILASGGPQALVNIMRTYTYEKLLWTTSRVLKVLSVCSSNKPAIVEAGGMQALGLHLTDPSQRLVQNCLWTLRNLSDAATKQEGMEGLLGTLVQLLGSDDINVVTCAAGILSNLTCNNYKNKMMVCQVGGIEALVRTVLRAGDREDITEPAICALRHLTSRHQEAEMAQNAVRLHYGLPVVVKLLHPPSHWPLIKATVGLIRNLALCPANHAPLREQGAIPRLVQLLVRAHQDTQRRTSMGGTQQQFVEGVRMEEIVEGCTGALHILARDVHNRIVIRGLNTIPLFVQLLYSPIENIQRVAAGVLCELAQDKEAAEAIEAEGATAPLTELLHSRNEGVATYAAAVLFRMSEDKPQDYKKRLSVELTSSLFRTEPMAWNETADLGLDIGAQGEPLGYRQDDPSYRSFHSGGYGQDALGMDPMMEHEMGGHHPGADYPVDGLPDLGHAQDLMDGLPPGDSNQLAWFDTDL

No constants are given. Whether binding was seen depends on the method and setting. In cells and extracts the contact can be indirect. Some entries that bind do so weakly or less than the wild type.

Turning to β-catenin (from UniProt P35222 1-781), the binding result is listed as “binds”.

The values are drawn from PMC6090531.
